Measured data: PubChem BioAssay AID743121 (NCATS, 2013)
Assay: 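Partners whose loss is lethal together with topoisomerase I blockade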 (primary screen). System: MDA-MB-231 cells, a human breast cancer line. Knock-down reagent: single siRNA against human genes, 20 nM siRNA (0.8 pmol per well). Timing: 120 h (drug added 48 h after transfection, read 72 h later). Challenge: camptothecin 20 nM (about EC30) for 72 h; vehicle 0.1% DMSO in parallel plates. Detection: 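CellTiter-Glo ATP signal, scaled to control siRNA as percent viability; sensitisation given as log2 of untreated divided by camptothecin-treated viability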. Direction: log2 vehicle/camptothecin viability: higher = stronger sensitisation to camptothecin; viability with camptothecin and viability without drug: higher = more viable cells. Call rule: 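Active genes have an RSA gene-level p-value below 0.001, computed from the ratios of their separate siRNAs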.
The whole screen tested about 26,000 reagents; below is a part drawn at random. 167 of all reagents (0.63%) were called active. 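Calls are per gene from RSA p-values that are not deposited; an individual active-marked siRNA can sensitise only weakly.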 The numbers tell different reagents against one gene apart.

gene	reagent no.	log2 vehicle/camptothecin viability	viability with camptothecin (% of control)	viability without drug (% of control)	Outcome
MTNR1A	1	0.86	26.9	48.8	inactive
MTNR1A	2	-0.347	97.1	76.4	inactive
MTNR1A	3	-0.376	92.7	71.4	inactive
MTNR1A	4	0.122	55.1	60	inactive
MAP3K8	1	-0.497	92.2	65.4	inactive
MAP3K8	2	0.123	65.7	71.6	inactive
MAP3K8	3	-0.136	32.2	29.3	inactive
MAP3K8	4	-0.111	103	95.6	inactive
RAB6B	1	0.93	9.73	18.5	inactive
RAB6B	2	-0.327	91	72.5	inactive
RAB6B	3	0.155	78.4	87.2	inactive
RAB6B	4	0.0709	31.7	33.3	inactive
LPO	1	0.0344	75.5	77.3	inactive
LPO	2	-0.0446	89	86.3	inactive
LPO	3	-0.31	102	82.6	inactive
LPO	4	-0.201	68.1	59.2	inactive
RFPL4A	1	-0.0872	99.8	94	inactive
RFPL4A	2	-0.27	92.7	76.9	inactive
RFPL4A	3	-0.0359	75	73.1	inactive

4 of these entries, reformatted.
gene,reagent no.,log2 vehicle/camptothecin viability,viability with camptothecin (% of control),viability without drug (% of control),Outcome
LPO,4,-0.201,68.1,59.2,inactive
RFPL4A,1,-0.0872,99.8,94,inactive
RFPL4A,2,-0.27,92.7,76.9,inactive
RFPL4A,3,-0.0359,75,73.1,inactive

The results go on:
gene	reagent no.	log2 vehicle/camptothecin viability	viability with camptothecin (% of control)	viability without drug (% of control)	Outcome
USP46	1	-0.26	96.9	80.9	inactive
USP46	2	-0.265	80.8	67.3	inactive
USP46	3	-0.506	91.1	64.1	inactive
USP46	4	-0.09	82.5	77.5	inactive
MAST2	1	0.014	81.3	82.1	inactive
MAST2	2	-0.396	93.6	71.2	inactive
MAST2	3	0.243	52.5	62.1	inactive
MAST2	4	0.19	46.8	53.4	inactive
MTHFR	1	-0.119	52.3	48.1	inactive
MTHFR	2	-0.0744	112	106	inactive
MTHFR	3	-0.0495	79.7	77	inactive
